Reference: doi:10.1101/2020.09.29.317958
No constants are given. Whether binding was seen depends on the method and setting. In cells and extracts the contact can be indirect. Some binding calls cover weakened binding; strength is not graded here.

Protein sequences, listed by entry. Tags and fused reporters are not part of them.
UniProt Q7TPM3: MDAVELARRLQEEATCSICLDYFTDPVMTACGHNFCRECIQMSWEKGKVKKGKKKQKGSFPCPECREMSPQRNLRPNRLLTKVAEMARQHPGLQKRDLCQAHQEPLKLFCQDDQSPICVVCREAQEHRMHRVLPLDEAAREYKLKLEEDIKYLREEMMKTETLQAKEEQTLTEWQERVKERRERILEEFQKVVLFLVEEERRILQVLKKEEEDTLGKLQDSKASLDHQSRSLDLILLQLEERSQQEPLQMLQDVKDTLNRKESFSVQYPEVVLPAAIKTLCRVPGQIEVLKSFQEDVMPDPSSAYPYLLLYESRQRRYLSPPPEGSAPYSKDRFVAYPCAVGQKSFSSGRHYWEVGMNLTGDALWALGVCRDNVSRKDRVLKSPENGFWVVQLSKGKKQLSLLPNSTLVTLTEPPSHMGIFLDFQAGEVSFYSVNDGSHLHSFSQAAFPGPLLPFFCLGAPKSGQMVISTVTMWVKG
UniProt Q9ESN2: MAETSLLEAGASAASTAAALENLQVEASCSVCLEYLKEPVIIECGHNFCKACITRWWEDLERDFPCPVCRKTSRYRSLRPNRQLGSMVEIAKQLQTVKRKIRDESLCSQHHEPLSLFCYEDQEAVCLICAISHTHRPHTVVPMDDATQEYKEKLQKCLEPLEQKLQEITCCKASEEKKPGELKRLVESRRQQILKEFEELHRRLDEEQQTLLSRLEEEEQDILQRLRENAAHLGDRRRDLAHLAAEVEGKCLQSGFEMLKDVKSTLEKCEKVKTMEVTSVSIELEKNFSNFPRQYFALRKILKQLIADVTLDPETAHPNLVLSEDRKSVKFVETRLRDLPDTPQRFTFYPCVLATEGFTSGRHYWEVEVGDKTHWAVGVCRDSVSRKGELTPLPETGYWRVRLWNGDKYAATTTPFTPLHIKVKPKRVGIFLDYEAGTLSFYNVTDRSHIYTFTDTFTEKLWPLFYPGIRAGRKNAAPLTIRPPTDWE

What was measured:
Trim17-GFP (mouse) = Trim17-GFP (mouse) (UniProt Q7TPM3); assay: co-IP
Flag-Trim39 (mouse) = Flag-Trim39 (mouse) (UniProt Q9ESN2); assay: co-IP

| Substance | binding (Trim17-GFP (mouse)) | binding (Flag-Trim39 (mouse)) |
| --- | --- | --- |
| Flag-Trim39 (from UniProt Q9ESN2 1-488) | binds | – |
| Trim17-GFP (from UniProt Q7TPM3 1-477) | – | binds |
